From patent US8835147B2, “Cellular production of glucaric acid through recombinant expression of uronate dehydrogenase and myo-inositol oxygenase” (Massachusetts Institute of Technology, priority 2008, dated 2014) come the findings set out here.

The nature of this series: Effect of pH on activity of purified Udhs. The format is biochemical. Particulars: purified Udh, FIG. 10a.

B1: P. putida enzyme: 6×-His tagged uronate dehydrogenase from P. putida KT2440 (SEQ ID NO:26), expressed in E. coli and purified (protein, listed as Pseudomonas putida)
chain: MTTTPFNRLLLTGAAGGLGKVLRERLKGYAEVLRLSDISPMAPAAGPHEEVITCDLADKAAVHTLVEGVDAIIHFGGVSTEHAFEEILGPNICGVFHVYEAARKHGVKRIIFASSNHTIGFYRQDERIDAHAPRRPDSYYGLSKCYGEDVASFYFDRYGIETVSIRIGSSFPQPQNLRMLCTWLSYDDLVQLIERGLFTPGVGHTIVYGASDNRTVWWDNRHAAHLGYVPKDSSETFRAAVEAQPAPAADDPSMVYQGGAFAVAGPFN
modifications: 6xHis tag
Turning to B1, the pH optimum is approximately 7.0.
